PubChem BioAssay AID2685 (National Center for Advancing Translational Sciences (NCATS), 2010)
This is one part of the list. Further columns of the screen follow, without active or inactive calls. Most of these compounds were active or inconclusive in the main read-out, so they are no random draw. The note in brackets gives the kind of curve behind each potency; many fits are weak.

Experiment: qHTS Assay for Lipid Storage Modulators in Drosophila S3 Cells;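 on cell number change: cells counted by Cell Tracker Red CMTPX staining in the red channel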
Settings: BODIPY lipid droplet fluorescence, 18-24 h; for cell number change: measured here: cell count max response, cells fed with added oleic acid
Outline: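 Drosophila S3 cells loaded with oleic acid (400 uM, as added) and compounds at several concentrations; lipid droplets imaged by 488-nm laser-scanning cytometry, 500–530 nm intensity and object ratio to cell channel. Percent activity normalized to 20 uM Triacsin C.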

[1] = measured here: lipid fluorescence (Fed channel) AC50, cells fed with added oleic acid
[2] = measured here: cell number channel AC50, cells fed with added oleic acid

## O=c1cc(-c2ccccc2)[nH]c2[nH]n(-c3ccccc3)c(=O)c12
  cell number change: 8.53%
[1]
  AC50: 0.731 µM [falling, full curve]

## COC(=O)c1cn(C(=O)OC)c2ccccc12
[1]
  AC50: 3.66 µM [falling, partial curve, poor fit]

## CC(CC(=O)Nc1cc([N+](=O)[O-])ccc1Cl)c1ccccc1 (stereo not drawn)
[2]
  AC50: 2.31 µM [rising, partial curve]

## CCc1ccc(Oc2coc3cc(O)ccc3c2=O)cc1
  cell number change: 20.6%

## COc1cc(Cl)ccc1OCc1cc(C(=O)N2CCCCC2c2cccnc2)no1 (stereo not drawn)
  cell number change: 8.56%
[1]
  AC50: 3.66 µM [falling, single point]

## CC(=O)Nc1nc2n(n1)C(c1ccccc1)C=C(c1ccccc1)N2 (stereo not drawn)
  cell number change: -34.3%
[2]
  AC50: 0.231 µM [falling, full curve, poor fit]

## COc1cccc(C(=O)/C=C/Nc2ccc(S(=O)(=O)Nc3ncccn3)cc2)c1
  cell number change: 15.7%
[1]
  AC50: 0.0517 µM [falling, full curve, poor fit]

## O=C(COc1ccccc1)NCc1nnc(SCC(=O)Nc2nccs2)n1-c1ccccc1
  cell number change: -8.86%
[1]
  AC50: 0.82 µM [rising, single point]

## CCOC(=O)N1CCN(C(=O)c2ccc3c(c2)NC(=O)/C(=C\c2ccc(OC)c(OC)c2)S3)CC1
  cell number change: -22.1%
[1]
  AC50: 0.184 µM [rising, full curve, poor fit]

## O=Cc1ccc(Cl)c(Cl)c1
  cell number change: 20.2%
[1]
  AC50: 4.11 µM [falling, single point]

## COC(=O)c1ccc(NC(=O)C2CCCN2S(=O)(=O)c2ccc(OC)cc2)cc1 (stereo not drawn)
  cell number change: -10.4%
[1]
  AC50: 32.6 µM [falling, single point]

## CC1=C(C(=O)OCCC#N)C(c2cc3c(cc2Br)OCO3)NC(=O)N1 (stereo not drawn)
  cell number change: 10.5%

## Cc1cccc2cc(CN(CCN3CCOCC3)C(=O)NCc3ccccc3)c(=O)[nH]c12
  cell number change: 22.6%
[1]
  AC50: 0.259 µM [rising, full curve, poor fit]

## O=C(COC(=O)c1cccs1)NCc1ccccc1
  cell number change: 1.44%

## CCc1ccc(S(=O)(=O)/N=C2\C=C(Nc3ccc(C(=O)O)cc3)C(=O)c3ccccc32)cc1
  cell number change: -44.8%
[2]
  AC50: 13 µM [falling, partial curve]

## COc1ccccc1N(CC(O)Cn1nc(C)cc1C)S(=O)(=O)c1ccccc1 (stereo not drawn)
  cell number change: 1.99%

## CCc1nc2c(C#N)c(-c3ccc(Cl)cc3)ccn2n1
[2]
  AC50: 1.03 µM [rising, partial curve]
[1]
  AC50: 0.651 µM [rising, full curve, poor fit]

## CC(C)CN1CCC(=O)N(CCC#N)CC1
  cell number change: 22%
[1]
  AC50: 29.1 µM [rising, single point]

## Fc1ccccc1NC(=S)Nc1ccc(CN2CCOCC2)cc1
  cell number change: -1.41%
[1]
  AC50: 0.731 µM [falling, single point]

## O=C(NCCN=C1NS(=O)(=O)c2ccccc21)c1ccc2nccnc2c1
  cell number change: 1.7%
[2]
  AC50: 4.11 µM [falling, single point]
[1]
  AC50: 4.11 µM [falling, single point]

## CN1C(=O)C2(N=c3ccccc3=N2)c2ccccc21
  cell number change: -4.98%
[2]
  AC50: 0.92 µM [rising, full curve, poor fit]

## NS(=O)(=O)c1ccc(N2CCN(CCOc3ccc(Cl)cc3)CC2)nc1
  cell number change: -0.42%
[1]
  AC50: 6.51 µM [rising, single point]

## CCCc1cc(=O)oc2cc(OC(C)C(=O)NCc3ccccn3)c(Cl)cc12 (stereo not drawn)
  cell number change: -25.4%
[2]
  AC50: 7.31 µM [falling, partial curve, poor fit]
[1]
  AC50: 1.3 µM [falling, full curve]

## CN(Cc1ccccc1Cl)C(=O)C1CCC(=O)N(CCc2cccc(F)c2)C1 (stereo not drawn)
  cell number change: 21.5%
[1]
  AC50: 29.1 µM [falling, single point]

## CCc1ccc(N2C(=O)CN(Cc3cc(OC)c(OC)c(OC)c3)C2=S)cc1
  cell number change: -18.9%
[2]
  AC50: 2.31 µM [rising, partial curve]
[1]
  AC50: 6.51 µM [rising, single point]

## Cc1ccc2c(c1)C(O)(c1c(C)[nH]c3ccccc13)C(=O)N2 (stereo not drawn)
  cell number change: -61.6%
[2]
  AC50: 29.1 µM [falling, single point]
[1]
  AC50: 29.1 µM [falling, single point]

## CCN(CC)S(=O)(=O)c1cccc(C(=O)N2CCCCC2)c1
  cell number change: 16.9%
[1]
  AC50: 3.66 µM [falling, single point]

## Cc1ccc(NC(=O)c2nc[nH]c2C(=O)NCc2ccccc2)cc1
  cell number change: -61.8%
[2]
  AC50: 25.9 µM [falling, single point]
[1]
  AC50: 0.146 µM [falling, single point]

## CCC1Oc2ccc(C)cc2N(CC(=O)NCCCN2CCCC2)C1=O (stereo not drawn)
  cell number change: 38.9%

## O=C(Cn1nc(Cc2cccnc2)c2ccccc2c1=O)NCc1ccc2c(c1)OCO2
[2]
  AC50: 0.0517 µM [rising, full curve]
[1]
  AC50: 0.82 µM [rising, full curve]

## CCOc1ccc(NC(=O)CN(C)C(=O)c2nc3nc(C)cc(C)n3n2)cc1OCC
  cell number change: 0.556%
[1]
  AC50: 9.2 µM [rising, single point]

## Cc1cc2c(cc1C)C(=O)NC(C)(C)C2
  cell number change: 116%
[2]
  AC50: 20.6 µM [rising, single point]

## O=C(NCC1CCCN1S(=O)(=O)c1cccs1)C(=O)Nc1cccc(F)c1 (stereo not drawn)
[2]
  AC50: 3.26 µM [rising, single point]

## CCn1c(SCC(=O)NC2CCCCC2)nc2c(c1=O)SCC2
  cell number change: 11.1%
[1]
  AC50: 18.4 µM [rising, partial curve]

## COC(=O)COc1cc(Cl)c(C=O)cc1OC
  cell number change: -32.2%
[2]
  AC50: 1.84 µM [falling, partial curve]

## O=C(CSc1ccc(-c2nc3ccccc3[nH]2)cn1)Nc1ccc2c(c1)OCCO2
  cell number change: -55%
[2]
  AC50: 32.6 µM [falling, single point]
[1]
  AC50: 20.6 µM [falling, single point]

## COC(=O)c1cc(S(=O)(=O)N2CCN(c3cccc(OC)c3)CC2)cn1C
  cell number change: 10.2%
[1]
  AC50: 0.517 µM [rising, single point]

## CCc1ccc(NC(=O)CSc2nc3ccccc3nc2N2CCCCC2)cc1
[1]
  AC50: 14.6 µM [falling, single point]
